Assay results reported in PMC10484741, “Human TRMT2A methylates tRNA and contributes to translation fidelity”.

Protein sequences, listed by entry. Tags and fused reporters are not part of them.
UniProt Q01105: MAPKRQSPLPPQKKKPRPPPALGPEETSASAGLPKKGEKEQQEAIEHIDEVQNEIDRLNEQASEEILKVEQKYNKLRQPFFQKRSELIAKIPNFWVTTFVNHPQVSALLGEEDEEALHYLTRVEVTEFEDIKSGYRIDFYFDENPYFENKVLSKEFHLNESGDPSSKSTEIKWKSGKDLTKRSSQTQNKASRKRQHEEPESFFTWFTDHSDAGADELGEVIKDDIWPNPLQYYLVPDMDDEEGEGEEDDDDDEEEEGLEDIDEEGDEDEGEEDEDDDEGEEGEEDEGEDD
UniProt P06748: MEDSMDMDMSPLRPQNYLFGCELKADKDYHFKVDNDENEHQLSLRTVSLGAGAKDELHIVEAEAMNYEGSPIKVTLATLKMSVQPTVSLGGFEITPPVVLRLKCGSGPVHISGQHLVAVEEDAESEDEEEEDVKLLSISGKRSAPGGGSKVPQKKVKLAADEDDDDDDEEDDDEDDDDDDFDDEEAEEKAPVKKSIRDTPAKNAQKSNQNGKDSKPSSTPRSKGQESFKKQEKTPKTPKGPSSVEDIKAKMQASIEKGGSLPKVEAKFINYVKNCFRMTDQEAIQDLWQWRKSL
UniProt Q9BUA3: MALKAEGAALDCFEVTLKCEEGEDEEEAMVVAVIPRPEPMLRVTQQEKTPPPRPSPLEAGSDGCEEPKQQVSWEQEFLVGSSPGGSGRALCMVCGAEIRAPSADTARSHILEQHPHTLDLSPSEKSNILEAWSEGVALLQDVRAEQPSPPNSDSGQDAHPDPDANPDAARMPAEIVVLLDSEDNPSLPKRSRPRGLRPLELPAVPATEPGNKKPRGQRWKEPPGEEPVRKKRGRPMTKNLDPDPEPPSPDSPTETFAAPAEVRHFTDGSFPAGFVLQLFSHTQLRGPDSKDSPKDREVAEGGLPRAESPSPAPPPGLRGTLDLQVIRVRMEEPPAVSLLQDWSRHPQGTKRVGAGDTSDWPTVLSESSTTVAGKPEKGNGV

How the values were obtained:
[1] = molecular target: T1, FLAG-tagged hTRMT2A CDM (catalytic death mutant) (human) (UniProt Q8IZ69); assay: affinity purification with mass spectrometry; Co-IP from HEK 293T lysate: doxycycline-induced FLAG-tagged hTRMT2A WT or CDM captured on anti-FLAG M2 magnetic beads, 1 h at 4°C, washes with 250 mM NaCl, LC-MS/MS; FLAG tag alone as background; five replicates
T1 sequence: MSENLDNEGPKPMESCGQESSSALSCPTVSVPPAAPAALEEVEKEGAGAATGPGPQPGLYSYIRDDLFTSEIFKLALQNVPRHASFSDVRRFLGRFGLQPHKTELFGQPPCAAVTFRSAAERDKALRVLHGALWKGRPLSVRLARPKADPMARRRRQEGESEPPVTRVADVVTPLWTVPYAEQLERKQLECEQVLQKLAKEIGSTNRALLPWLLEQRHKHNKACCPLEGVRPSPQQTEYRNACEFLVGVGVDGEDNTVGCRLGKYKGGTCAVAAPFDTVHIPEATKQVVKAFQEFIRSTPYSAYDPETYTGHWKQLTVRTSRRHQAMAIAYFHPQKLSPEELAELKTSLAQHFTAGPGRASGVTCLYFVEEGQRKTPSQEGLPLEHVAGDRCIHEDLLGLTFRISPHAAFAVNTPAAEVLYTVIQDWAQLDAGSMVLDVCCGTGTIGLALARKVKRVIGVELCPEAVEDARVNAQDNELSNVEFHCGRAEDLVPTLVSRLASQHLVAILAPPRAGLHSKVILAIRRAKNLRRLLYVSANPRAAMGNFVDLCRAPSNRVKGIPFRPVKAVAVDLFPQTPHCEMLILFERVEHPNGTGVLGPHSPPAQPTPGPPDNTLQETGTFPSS

[2] = molecular target: T2, FLAG-tagged hTRMT2A WT (human) (UniProt Q8IZ69); assay: as above
T2 sequence: T1 sequence with A76E, E104K, A113F, A242K, A409F, A411Q, A510D, A538C

[3] = molecular target: T3, FLAG-BirA*-tagged hTRMT2A CDM (catalytic death mutant) (human) (UniProt Q8IZ69); assay: proximity labelling; BioID in HEK 293T cells: doxycycline-induced BirA*-tagged hTRMT2A WT or CDM, 50 uM biotin for 16-18 h, biotinylated proteins captured on streptavidin magnetic beads, LC-MS/MS; BirA* tag alone as background; five replicates
T3 sequence: T1 sequence

[4] = molecular target: T4, FLAG-BirA*-tagged hTRMT2A WT (tRNA methyltransferase 2 homolog A) (human) (UniProt Q8IZ69); assay: as above
T4 sequence: T1 sequence with A76E, E104K, A113F, A242K, A409F, A411Q, A510D, A538C

[5] = molecular target: T3, FLAG-BirA*-tagged hTRMT2A CDM (catalytic death mutant) (human); assay: as above; remark: listed apart in the source
[6] = molecular target: T4, FLAG-BirA*-tagged hTRMT2A WT (tRNA methyltransferase 2 homolog A) (human); assay: as above; remark: listed apart in the source

Molecule: SET (from UniProt Q01105 1-290)
binding [2]: binds
binding [4]: binds

Molecule: NPM1 (from UniProt P06748 1-294)
binding [2]: binds
binding [4]: binds

B2: PPM1G (protein, UniProt O15355 1-546)
chain: MGAYLSQPNTVKCSGDGVGAPRLPLPYGFSAMQGWRVSMEDAHNCIPELDSETAMFSVYDGHGGEEVALYCAKYLPDIIKDQKAYKEGKLQKALEDAFLAIDAKLTTEEVIKELAQIAGRPTEDEDEKEKVADEDDVDNEEAALLHEEATMTIEELLTRYGQNCHKGPPHSKSGGGTGEEPGSQGLNGEAGPEDSTRETPSQENGPTAKAYTGFSSNSERGTEAGQVGEPGIPTGEAGPSCSSASDKLPRVAKSKFFEDSEDESDEAEEEEEDSEECSEEEDGYSSEEAENEEDEDDTEEAEEDDEEEEEEMMVPGMEGKEEPGSDSGTTAVVALIRGKQLIVANAGDSRCVVSEAGKALDMSYDHKPEDEVELARIKNAGGKVTMDGRVNGGLNLSRAIGDHFYKRNKNLPPEEQMISALPDIKVLTLTDDHEFMVIACDGIWNVMSSQEVVDFIQSKISQRDENGELRLLSSIVEELLDQCLAPDTSGDGTGCDNMTCIIICFKPRNTAELQPESGKRKLEEVLSTEGAEENGNSDKKKKAKRD
binding [2]: binds
binding [6]: binds

B4: LARP7 (protein, UniProt Q4G0J3 1-582)
chain: METESGNQEKVMEEESTEKKKEVEKKKRSRVKQVLADIAKQVDFWFGDANLHKDRFLREQIEKSRDGYVDISLLVSFNKMKKLTTDGKLIARALRSSAVVELDLEGTRIRRKKPLGERPKDEDERTVYVELLPKNVNHSWIERVFGKCGNVVYISIPHYKSTGDPKGFAFVEFETKEQAAKAIEFLNNPPEEAPRKPGIFPKTVKNKPIPALRVVEEKKKKKKKKGRMKKEDNIQAKEENMDTSNTSISKMKRSRPTSEGSDIESTEPQKQCSKKKKKRDRVEASSLPEVRTGKRKRSSSEDAESLAPRSKVKKIIQKDIIKEASEASKENRDIEISTEEEKDTGDLKDSSLLKTKRKHKKKHKERHKMGEEVIPLRVLSKSEWMDLKKEYLALQKASMASLKKTISQIKSESEMETDSGVPQNTGMKNEKTANREECRTQEKVNATGPQFVSGVIVKIISTEPLPGRKQVRDTLAAISEVLYVDLLEGDTECHARFKTPEDAQAVINAYTEINKKHCWKLEILSGDHEQRYWQKILVDRQAKLNQPREKKRGTEKLITKAEKIRLAKTQQASKHIRFSEYD
binding [2]: binds
binding [6]: binds

Continued, in another order:

binding [2]: binds
binding [4]: binds
Molecule: SPINDOC (from UniProt Q9BUA3 1-381)
binding [1]: binds
binding [3]: binds

binding [2]: binds
binding [6]: binds
B1: RISC loading complex subunit TARBP2 (protein, UniProt Q15633 1-366)
chain: MSEEEQGSGTTTGCGLPSIEQMLAANPGKTPISLLQEYGTRIGKTPVYDLLKAEGQAHQPNFTFRVTVGDTSCTGQGPSKKAAKHKAAEVALKHLKGGSMLEPALEDSSSFSPLDSSLPEDIPVFTAAAAATPVPSVVLTRSPPMELQPPVSPQQSECNPVGALQELVVQKGWRLPEYTVTQESGPAHRKEFTMTCRVERFIEIGSGTSKKLAKRNAAAKMLLRVHTVPLDARDGNEVEPDDDHFSIGVGSRLDGLRNRGPGCTWDSLRNSVGEKILSLRSCSLGSLGALGPACCRVLSELSEEQAFHVSYLDIEELSLSGLCQCLVELSTQPATVCHGSATTREAARGEAARRALQYLKIMAGSK
binding [1]: binds
binding [5]: binds

binding [2]: binds
binding [6]: binds
B3: UPF1 (protein, UniProt Q92900 1-1129)
chain: MSVEAYGPSSQTLTFLDTEEAELLGADTQGSEFEFTDFTLPSQTQTPPGGPGGPGGGGAGGPGGAGAGAAAGQLDAQVGPEGILQNGAVDDSVAKTSQLLAELNFEEDEEDTYYTKDLPIHACSYCGIHDPACVVYCNTSKKWFCNGRGNTSGSHIVNHLVRAKCKEVTLHKDGPLGETVLECYNCGCRNVFLLGFIPAKADSVVVLLCRQPCASQSSLKDINWDSSQWQPLIQDRCFLSWLVKIPSEQEQLRARQITAQQINKLEELWKENPSATLEDLEKPGVDEEPQHVLLRYEDAYQYQNIFGPLVKLEADYDKKLKESQTQDNITVRWDLGLNKKRIAYFTLPKTDSGNEDLVIIWLRDMRLMQGDEICLRYKGDLAPLWKGIGHVIKVPDNYGDEIAIELRSSVGAPVEVTHNFQVDFVWKSTSFDRMQSALKTFAVDETSVSGYIYHKLLGHEVEDVIIKCQLPKRFTAQGLPDLNHSQVYAVKTVLQRPLSLIQGPPGTGKTVTSATIVYHLARQGNGPVLVCAPSNIAVDQLTEKIHQTGLKVVRLCAKSREAIDSPVSFLALHNQIRNMDSMPELQKLQQLKDETGELSSADEKRYRALKRTAERELLMNADVICCTCVGAGDPRLAKMQFRSILIDESTQATEPECMVPVVLGAKQLILVGDHCQLGPVVMCKKAAKAGLSQSLFERLVVLGIRPIRLQVQYRMHPALSAFPSNIFYEGSLQNGVTAADRVKKGFDFQWPQPDKPMFFYVTQGQEEIASSGTSYLNRTEAANVEKITTKLLKAGAKPDQIGIITPYEGQRSYLVQYMQFSGSLHTKLYQEVEIASVDAFQGREKDFIILSCVRANEHQGIGFLNDPRRLNVALTRARYGVIIVGNPKALSKQPLWNHLLNYYKEQKVLVEGPLNNLRESLMQFSKPRKLVNTINPGARFMTTAMYDAREAIIPGSVYDRSSQGRPSSMYFQTHDQIGMISAGPSHVAAMNIPIPFNLVMPPMPPPGYFGQANGPAAGRGTPKGKTGRGGRQKNRFGLPGPSQTNLPNSQASQDVASQPFSQGALTQGYISMSQPSQMSQPGLSQPELSQDSYLGDEFKSQIDVALSQDSTYQGERAYQHGGVTGLSQY

Changes are numbered by the printed parent chain. Where two headings read alike, the source gives them in different places. No constants are given. Whether binding was seen depends on the method and setting. In cells and extracts the contact can be indirect. A yes stands for co-enrichment or nearness to the bait. Other partners may have been found. Tags and fused reporters may be left off the sequences shown. Each block holds one molecule with its values, some of them ahead of it.
